Holding throughout (format): cell-based
What all share (conditions): Homo sapiens, PBMC, compound 10 uM, average over patients, relative to high control (0%) and no-cell low control (100%)

The subject of assay [1] is PBMCs from AML patients. Kind of assay: Primary screening of FDA approved drug library, TitreGlo/CellTiter-Glo cell viability, PBMCs from AML patients. Background: Cellular ATP, detected with luciferase, serves as a proxy for viable cell number.
In assay [2] the test system is PBMCs from ALL patients. The assay can be described thus: Primary screening of FDA approved drug library, TitreGlo/CellTiter-Glo cell viability, PBMCs from ALL patients.
The test system of assay [3] is PBMCs from CML patients. The assay can be described thus: Primary screening of FDA approved drug library, TitreGlo/CellTiter-Glo cell viability, PBMCs from CML patients.
Assay [4] has as its system PBMCs from CLL patients. The assay can be described thus: Primary screening of FDA approved drug library, TitreGlo/CellTiter-Glo cell viability, PBMCs from CLL patients.

Counter-ions that a name gives are not always drawn.

Usually inhibition stands for the relative decrease from the control value, in per cent. The low end stands for little suppression, the high end for strong suppression.

For `CN1CCC[C@@H]1CCO[C@](C)(c1ccccc1)c1ccc(Cl)cc1` [Clemastine Fumarate], the inhibition at 10 µM in assay [1] came out at 13.5%; in assay [2] it was 39.1%; in assay [3], 66.4%; in assay [4] it was 55.6%.
Regarding `Clc1ccc(CO/N=C(\Cn2ccnc2)c2ccc(Cl)cc2Cl)c(Cl)c1` [Oxiconazole Nitrate], the inhibition at 10 µM in assay [1] worked out at 8.7%; in assay [2], 25.7%; in assay [3], 61.7%; in assay [4] it was 12.2%.
